{"source": "PubChem BioAssay AID686943 | Drosophila RNAi Screening Center – 2013", "test": "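Search across the genome for regulators of signalling from receptor tyrosine kinase to ERK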 (primary screen)", "cells": "Drosophila S2R+ haemocyte-like cells expressing YFP-tagged ERK (Rolled)", "reagents": "long dsRNA against Drosophila genes", "conditions": "insulin stimulation versus unstimulated cells; dose and duration not given", "measurement": "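Antibody staining for doubly phosphorylated ERK divided by ERK-YFP signal, as plate z-scores, in insulin-treated and untreated cells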", "direction": "replicate 1, z-score of dpERK with insulin: higher = more active ERK per ERK-YFP after insulin", "note": "The screen tested about 23,000 reagents; shown is a random part of those that have a named target and a result. 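Extra replicates exist only for a retested subset of genes; insulin dose and duration not given; both raised and lowered dpERK matter.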 The numbers tell different reagents against one gene apart. A plus sign joins genes that one reagent is predicted to hit. Further read-outs or replicates are left out here. Not stated in the record: the amount of reagent, the time to read-out."}
{"Gene": "CG34331", "reagent no.": 1, "replicate 1, z-score of dpERK with insulin": 0.62}
{"Gene": "CG5676", "reagent no.": 1, "replicate 1, z-score of dpERK with insulin": -0.6}
{"Gene": "rau", "reagent no.": 1, "replicate 1, z-score of dpERK with insulin": -0.02}
{"Gene": "asRNA:CR42547 + CG15674", "reagent no.": 1, "replicate 1, z-score of dpERK with insulin": 0.72}
{"Gene": "gogo (golden goal)", "reagent no.": 1, "replicate 1, z-score of dpERK with insulin": -1.87}
{"Gene": "gogo (golden goal)", "reagent no.": 2, "replicate 1, z-score of dpERK with insulin": -0.62}
{"Gene": "Arpc5 (Actin-related protein 2/3 complex, subunit 5)", "reagent no.": 1, "replicate 1, z-score of dpERK with insulin": -0.34}
{"Gene": "CG9346", "reagent no.": 1, "replicate 1, z-score of dpERK with insulin": 0.53}
{"Gene": "ASPP", "reagent no.": 1, "replicate 1, z-score of dpERK with insulin": -2.08}
{"Gene": "Ack (Activated Cdc42 kinase)", "reagent no.": 1, "replicate 1, z-score of dpERK with insulin": -0.71}
{"Gene": "pug (pugilist)", "reagent no.": 1, "replicate 1, z-score of dpERK with insulin": -0.72}
{"Gene": "RpS11 (Ribosomal protein S11)", "reagent no.": 1, "replicate 1, z-score of dpERK with insulin": -0.24}
{"Gene": "RpS11 (Ribosomal protein S11)", "reagent no.": 2, "replicate 1, z-score of dpERK with insulin": 0.17}
{"Gene": "CG31431", "reagent no.": 1, "replicate 1, z-score of dpERK with insulin": 0.16}

Already shown: an excerpt of the list.
{"Gene": "Ack (Activated Cdc42 kinase)", "reagent no.": 1, "replicate 1, z-score of dpERK with insulin": -0.71}
{"Gene": "pug (pugilist)", "reagent no.": 1, "replicate 1, z-score of dpERK with insulin": -0.72}

Next records follow.
{"Gene": "Ssb-c31a (Single stranded-binding protein c31A)", "reagent no.": 1, "replicate 1, z-score of dpERK with insulin": -0.11}
{"Gene": "CG10814", "reagent no.": 1, "replicate 1, z-score of dpERK with insulin": 0.14}
{"Gene": "CR42532 (pseudo)", "reagent no.": 1, "replicate 1, z-score of dpERK with insulin": -0.64}
{"Gene": "haf (hattifattener)", "reagent no.": 1, "replicate 1, z-score of dpERK with insulin": -0.67}
{"Gene": "Hmgcr (HMG Coenzyme A reductase)", "reagent no.": 1, "replicate 1, z-score of dpERK with insulin": -0.51}
{"Gene": "CG34169", "reagent no.": 1, "replicate 1, z-score of dpERK with insulin": -1.04}
{"Gene": "Cpr47Ea (Cuticular protein 47Ea)", "reagent no.": 1, "replicate 1, z-score of dpERK with insulin": 0.96}
